Values from PubChem BioAssay AID1259308 (NCATS, 2017).

- Test: 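Knock-downs that increase output of a recombinant reporter protein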 (primary screen)
- Cells: human HEK293 embryonic kidney cells stably expressing firefly luciferase (HEK-CMV-Luc2-Hygro)
- Knock-down reagent: single siRNA against human genes, 0.8 pmol siRNA per well
- Duration: 72 h
- Measured: 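Reporter luminescence and viable-cell signal on separate replicate plates, given as percent of non-targeting control and median/MAD z-scores, plus per-cell luciferase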
- Direction: total luciferase, z-score: higher = more reporter protein produced
- Hit rule: 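Active when the median/MAD z-score for overall luciferase is greater than 3; a gene was taken forward for validation with new siRNAs if at least two of its three siRNAs passed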
- Meaning of the calls: active = raised luciferase; inactive = no rise
The deposit covers about 59,000 reagents; shown is a part drawn at random. In the full data, about 1,510 (2.6%) are marked active. 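Calls use total luciferase alone and ignore viability, so some active siRNAs may act by altering cell number.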 The numbers tell different reagents against one gene apart. Not all columns of the deposit are shown.

What did the screen give for REL (REL proto-oncogene, NF-kB subunit) #1?
total luciferase, z-score: -0.402; call: inactive

How did the screen score REL (REL proto-oncogene, NF-kB subunit) #2?
total luciferase, z-score: 0.425; call: inactive

What did the screen give for REL (REL proto-oncogene, NF-kB subunit) #3?
total luciferase, z-score: -0.402; call: inactive

For AKAP5 (A-kinase anchoring protein 5) #1, how do the results read?
total luciferase, z-score: 0.957; call: inactive

With AKAP5 (A-kinase anchoring protein 5) #2, what was measured?
total luciferase, z-score: 1.2; call: inactive

What did the screen give for AKAP5 (A-kinase anchoring protein 5) #3?
total luciferase, z-score: -0.0162; call: inactive

What is on record for MVB12B (multivesicular body subunit 12B) #1?
total luciferase, z-score: 0.217; call: inactive

How did the screen score MVB12B (multivesicular body subunit 12B) #2?
total luciferase, z-score: 0.664; call: inactive

With MVB12B (multivesicular body subunit 12B) #3, what was measured?
total luciferase, z-score: 1.89; call: inactive

With SLC12A4 #1, how do the results read?
total luciferase, z-score: -0.335; call: inactive

For SLC12A4 #2, what was measured?
total luciferase, z-score: 0.0203; call: inactive

For SLC12A4 #3, how do the results read?
total luciferase, z-score: 1.69; call: inactive

For CYLC1 (cylicin 1) #1, how do the results read?
total luciferase, z-score: -0.349; call: inactive

What did the screen give for CYLC1 (cylicin 1) #2?
total luciferase, z-score: -0.334; call: inactive

Which result is listed for CYLC1 (cylicin 1) #3?
total luciferase, z-score: 1.35; call: inactive

Which result is listed for CNPY4 (canopy FGF signaling regulator 4) #1?
total luciferase, z-score: -0.0675; call: inactive

For CNPY4 (canopy FGF signaling regulator 4) #2, how do the results read?
total luciferase, z-score: 0.487; call: inactive

How did the screen score CNPY4 (canopy FGF signaling regulator 4) #3?
total luciferase, z-score: -0.464; call: inactive

3 entries already listed, sorted by “total luciferase, z-score”, ascending:
CYLC1 (cylicin 1) #1 | total luciferase, z-score = -0.349; call = inactive
CYLC1 (cylicin 1) #2 | total luciferase, z-score = -0.334; call = inactive
CYLC1 (cylicin 1) #3 | total luciferase, z-score = 1.35; call = inactive

More entries:
For OC90 (otoconin 90) #1, what was measured?
total luciferase, z-score: -0.208; call: inactive

For OC90 (otoconin 90) #2, what does the deposit list?
total luciferase, z-score: 0.0934; call: inactive

For OC90 (otoconin 90) #3, what was measured?
total luciferase, z-score: -0.804; call: inactive

What is on record for SPAG7 (sperm associated antigen 7) #1?
total luciferase, z-score: -1.05; call: inactive

What did the screen give for SPAG7 (sperm associated antigen 7) #2?
total luciferase, z-score: -0.356; call: inactive

Which result is listed for SPAG7 (sperm associated antigen 7) #3?
total luciferase, z-score: -1.37; call: inactive

What is on record for RASSF9 (Ras association domain family member 9) #1?
total luciferase, z-score: -0.28; call: inactive

With RASSF9 (Ras association domain family member 9) #2, what does the deposit list?
total luciferase, z-score: 0.115; call: inactive

What is on record for RASSF9 (Ras association domain family member 9) #3?
total luciferase, z-score: 0.421; call: inactive

Which result is listed for ANGPTL8 (angiopoietin like 8) #1?
total luciferase, z-score: -0.444; call: inactive

How did the screen score ANGPTL8 (angiopoietin like 8) #2?
total luciferase, z-score: 0.172; call: inactive

With ANGPTL8 (angiopoietin like 8) #3, what does the deposit list?
total luciferase, z-score: 1.18; call: inactive

With SLF2 (SMC5/6 complex localization factor 2) #1, how do the results read?
total luciferase, z-score: 1.04; call: inactive

With SLF2 (SMC5/6 complex localization factor 2) #2, what was measured?
total luciferase, z-score: -0.814; call: inactive

With SLF2 (SMC5/6 complex localization factor 2) #3, what does the deposit list?
total luciferase, z-score: 1.89; call: inactive

For FKRP (fukutin related protein) #1, how do the results read?
total luciferase, z-score: 1.95; call: inactive

For FKRP (fukutin related protein) #2, what does the deposit list?
total luciferase, z-score: 1.29; call: inactive

How did the screen score FKRP (fukutin related protein) #3?
total luciferase, z-score: -1.13; call: inactive

What is on record for BMS1P1 (BMS1 pseudogene 1) #1?
total luciferase, z-score: 0.974; call: inactive

For BMS1P1 (BMS1 pseudogene 1) #2, what does the deposit list?
total luciferase, z-score: -0.209; call: inactive

How did the screen score BMS1P1 (BMS1 pseudogene 1) #3?
total luciferase, z-score: 1.08; call: inactive

For ATP2C2 (ATPase secretory pathway Ca2+ transporting 2) #1, how do the results read?
total luciferase, z-score: 0.709; call: inactive

What is on record for ATP2C2 (ATPase secretory pathway Ca2+ transporting 2) #2?
total luciferase, z-score: -0.422; call: inactive

What is on record for ATP2C2 (ATPase secretory pathway Ca2+ transporting 2) #3?
total luciferase, z-score: 1.03; call: inactive
